From patent US20260062445A1, “PEPTIDES WITH CYTOKINE-RELEASING ACTIVITY AND METHODS FOR CHARACTERIZING CYTOKINE-RELEASING PROFILES OF PEPTIDES” (KOLIBER BIOSCIENCES INC., priority 2022, published 2026)
Some results were stated once for a whole list of compounds, not compound by compound.

These sequences were tested on expanded naïve CD4+ T cells co-cultured with PBMCs (assay: Expanded CD4 positive T cell assay (cytokine release, ELISA)). Details: upon second stimulation, peptide 40 μg/mL, FIG. 5C.
Type: cell-based, human
Description: To improve the robustness of the assay and decrease the well-to-well variation, a novel assay system was developed. In effect, by expanding the naïve CD4+ T cells, the number of antigen specific T cells can be increased per well with the goal of detecting a responding well with greater frequency. To expand the naïve CD4+ T cells, the cells are first isolated from PBMCs using negative selection with antibody coated magnetic beads. The naïve CD4+ T cells are then polyclonally expanded using anti-CD3 and anti-CD28 Dynabeads. An expansion of up to 20-fold was observed. The beads were then removed, and the cells were rested for 24 hours. The expanded CD4+ T cells were then co-cultured with PBMCs at a 4:1 ratio and stimulated with peptides twice every 3 days. IL-2 helper cytokine was included. Peptides were utilized at 40 μg/mL. After two peptide stimulations, IL-10 levels in the range of 20-50 picograms […]/mL were observed as compared to 5-10 pg/mL for negative controls (vehicle only) (see FIG. 3C).
PBMCs were isolated from healthy HLA typed donors of different ages, ethnicities, and genders. […] 100 million PBMC were thawed into media (Rosewell Park Memorial Institute (RPMI) 1640 medium, 10% fetal bovine serum (FBS) Heat Inactivated, 1% Penicillin-Streptomycin) and rested at 37° C., 5% CO2 overnight.
Naïve CD4+ T cells are isolated from rested PBMC using the BioLegend MojoSort™ Human CD4 T Cell Isolation Kit. Isolated T cells were counted and cultured at a density of 1×10^6 cells/mL of media with 30 units per milliliter (U/mL) of IL-2. T cells were activated and expanded using ThermoFisher Dynabeads™ Human T-Activator CD3/CD28. Beads were added at a 1:1 bead-to-cell ratio. […]
IL-10 and IFN-γ cytokine concentrations were determined for samples. […]
To quantify the number of responding wells for each peptide, a one sample t-test was utilized where signal from each well was compared against the distribution of negative wells from vehicle only controls. […]

Row | Sequence | fraction responding wells for IL-10
1 | FAVPAKQAKKTLT [KBP82] | >= 0.5
2 | KLAKRLLLSMNQ [KBP63] | >= 0.5
3 | LALLAPKLLRRF [KBP73] | >= 0.5
